# Percent effect of library compounds

Chains of the proteins cited; added tags and fusions are not shown. Residues count along the entry.
UniProt P9WFT3, whole entry: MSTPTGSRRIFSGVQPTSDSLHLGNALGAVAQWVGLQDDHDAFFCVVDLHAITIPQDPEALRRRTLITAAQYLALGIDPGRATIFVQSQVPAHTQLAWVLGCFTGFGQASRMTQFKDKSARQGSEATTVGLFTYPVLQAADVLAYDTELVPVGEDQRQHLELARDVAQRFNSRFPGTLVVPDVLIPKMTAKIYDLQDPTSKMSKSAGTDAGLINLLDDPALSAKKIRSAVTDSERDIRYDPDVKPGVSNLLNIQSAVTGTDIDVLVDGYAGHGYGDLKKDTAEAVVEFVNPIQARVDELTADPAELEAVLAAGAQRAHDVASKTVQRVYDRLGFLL
UniProt I6X8D2, whole entry: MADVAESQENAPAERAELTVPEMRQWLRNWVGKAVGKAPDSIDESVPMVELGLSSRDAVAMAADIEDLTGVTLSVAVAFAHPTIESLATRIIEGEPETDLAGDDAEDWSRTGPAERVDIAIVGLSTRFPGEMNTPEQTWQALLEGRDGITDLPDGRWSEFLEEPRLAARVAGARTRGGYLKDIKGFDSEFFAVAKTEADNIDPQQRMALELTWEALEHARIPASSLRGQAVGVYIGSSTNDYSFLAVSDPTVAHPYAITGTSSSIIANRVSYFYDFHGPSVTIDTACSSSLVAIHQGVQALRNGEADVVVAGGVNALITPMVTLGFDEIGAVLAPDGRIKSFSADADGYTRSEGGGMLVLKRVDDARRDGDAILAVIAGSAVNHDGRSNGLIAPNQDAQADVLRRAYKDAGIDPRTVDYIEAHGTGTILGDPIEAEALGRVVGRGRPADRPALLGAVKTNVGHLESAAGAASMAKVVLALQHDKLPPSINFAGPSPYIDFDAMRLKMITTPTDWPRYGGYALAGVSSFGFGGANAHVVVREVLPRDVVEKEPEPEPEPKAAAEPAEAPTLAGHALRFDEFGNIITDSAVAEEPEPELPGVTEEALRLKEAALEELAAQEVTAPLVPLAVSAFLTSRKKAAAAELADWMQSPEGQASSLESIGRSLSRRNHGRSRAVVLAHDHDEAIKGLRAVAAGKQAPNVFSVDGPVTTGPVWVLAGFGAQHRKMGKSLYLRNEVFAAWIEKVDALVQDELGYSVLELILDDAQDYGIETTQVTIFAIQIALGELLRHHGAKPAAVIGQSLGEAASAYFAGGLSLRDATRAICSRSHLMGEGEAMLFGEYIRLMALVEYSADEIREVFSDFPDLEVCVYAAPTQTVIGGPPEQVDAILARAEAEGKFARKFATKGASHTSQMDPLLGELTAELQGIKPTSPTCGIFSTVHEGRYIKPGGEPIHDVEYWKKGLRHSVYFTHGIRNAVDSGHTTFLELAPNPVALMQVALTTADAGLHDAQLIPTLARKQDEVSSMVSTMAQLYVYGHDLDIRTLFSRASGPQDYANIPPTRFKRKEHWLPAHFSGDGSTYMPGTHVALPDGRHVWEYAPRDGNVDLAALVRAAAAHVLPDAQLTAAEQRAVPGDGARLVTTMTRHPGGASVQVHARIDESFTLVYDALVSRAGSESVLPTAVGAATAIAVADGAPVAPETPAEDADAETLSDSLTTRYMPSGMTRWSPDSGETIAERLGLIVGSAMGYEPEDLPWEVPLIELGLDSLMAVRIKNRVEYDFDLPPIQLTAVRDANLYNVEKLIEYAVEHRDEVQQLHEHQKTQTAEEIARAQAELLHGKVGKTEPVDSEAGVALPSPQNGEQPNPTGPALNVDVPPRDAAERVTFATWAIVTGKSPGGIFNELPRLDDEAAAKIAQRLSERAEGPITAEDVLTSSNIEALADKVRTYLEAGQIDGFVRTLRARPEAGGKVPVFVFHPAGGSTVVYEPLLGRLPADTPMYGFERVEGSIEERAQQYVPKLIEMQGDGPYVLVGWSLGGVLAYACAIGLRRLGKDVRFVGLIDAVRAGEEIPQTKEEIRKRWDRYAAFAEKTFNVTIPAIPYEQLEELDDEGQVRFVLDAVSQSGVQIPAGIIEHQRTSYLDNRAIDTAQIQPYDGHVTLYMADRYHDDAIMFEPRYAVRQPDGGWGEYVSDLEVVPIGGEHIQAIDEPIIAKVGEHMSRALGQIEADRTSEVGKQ
UniProt A4I591, 1-473: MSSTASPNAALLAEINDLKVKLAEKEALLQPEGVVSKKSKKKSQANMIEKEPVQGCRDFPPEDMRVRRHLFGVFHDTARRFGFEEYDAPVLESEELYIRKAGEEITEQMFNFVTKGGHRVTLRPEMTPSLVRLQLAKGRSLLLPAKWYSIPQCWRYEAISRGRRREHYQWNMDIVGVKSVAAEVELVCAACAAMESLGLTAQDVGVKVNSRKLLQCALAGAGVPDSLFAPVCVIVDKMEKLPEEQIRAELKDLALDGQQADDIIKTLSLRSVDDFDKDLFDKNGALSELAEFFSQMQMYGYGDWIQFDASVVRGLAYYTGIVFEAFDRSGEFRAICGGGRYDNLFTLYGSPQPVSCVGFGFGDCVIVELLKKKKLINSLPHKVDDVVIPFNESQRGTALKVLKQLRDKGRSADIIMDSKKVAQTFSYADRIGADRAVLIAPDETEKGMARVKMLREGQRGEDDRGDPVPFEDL
UniProt Q4DA54, 1-478: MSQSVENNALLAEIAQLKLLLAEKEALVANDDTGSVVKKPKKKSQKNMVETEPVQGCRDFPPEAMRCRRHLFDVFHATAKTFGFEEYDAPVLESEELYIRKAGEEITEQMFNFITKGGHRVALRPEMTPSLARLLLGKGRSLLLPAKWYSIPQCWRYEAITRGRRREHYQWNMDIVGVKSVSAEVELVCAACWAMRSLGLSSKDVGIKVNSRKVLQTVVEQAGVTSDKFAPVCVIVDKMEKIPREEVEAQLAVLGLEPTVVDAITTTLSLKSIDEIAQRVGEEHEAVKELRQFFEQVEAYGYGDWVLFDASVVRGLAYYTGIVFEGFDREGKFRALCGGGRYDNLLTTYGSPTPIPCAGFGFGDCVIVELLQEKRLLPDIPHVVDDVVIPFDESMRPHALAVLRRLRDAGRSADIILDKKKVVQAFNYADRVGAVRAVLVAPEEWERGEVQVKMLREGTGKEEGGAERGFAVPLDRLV

Measurements from “University of Dundee, Small-Polar-MMV Screening Library” (2021), ChEMBL document CHEMBL3988442.

MtTrpRS: 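Enzyme assay of tryptophanyl-tRNA synthetase; the read-out is not stated. Target: Tryptophan-tRNA ligase, Mycobacterium tuberculosis (UniProt P9WFT3). Compounds at 10 µM. Direction is not recorded; retested compounds ran higher, which suggests that high means inhibition. About 65,000 compounds were tested under these conditions; 0.098% (about 64) showed 50% or more at least once.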
Pks13 thioesterase: 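Polyketide synthase Pks13, Mycobacterium tuberculosis (UniProt I6X8D2). Enzyme assay of the thioesterase domain of polyketide synthase 13; the read-out is not stated. Concentration: 30 µM. The record gives no direction; the compounds picked for IC50 retests had high values, so higher reads as stronger inhibition. Size under these conditions: about 67,000 compounds, about 300 of them at 50% or above in at least one test.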
LiHisRS: 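Histidine-tRNA ligase, Leishmania infantum (UniProt A4I591). Enzyme assay of histidyl-tRNA synthetase; the read-out is not stated. Tested at 30 µM. The record gives no direction; compounds that gave an IC50 in retests scored well above the rest, so higher reads as stronger inhibition. The assay is labelled LdHisRS but filed under L. infantum. Of about 69,000 compounds tested this way, about 410 (0.6%) reached 50% or more in at least one test.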
TcHisRS: 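Histidine-tRNA ligase, Trypanosoma cruzi CL Brener (UniProt Q4DA54). Enzyme assay of histidyl-tRNA synthetase; the read-out is not stated. Concentration: 30 µM. The record gives no direction; compounds that gave an IC50 in retests scored well above the rest, so higher reads as stronger inhibition. Of about 69,000 compounds tested this way, about 31 (0.045%) reached 50% or more in at least one test.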

Each number is a percent effect as filed. The controls that fix the scale are not given in the record; negative values are as filed. Compounds were drawn at random from those tested, without regard to their results. A dash means the value is not listed here; it may have been measured.

CC(CC#N)n1ccc(C(F)(F)F)n1 (stereo not given) read Pks13 thioesterase: 0.4154%; LiHisRS: 18.56%; TcHisRS: -1.156%. Cc1cccc(C)c1OC1CN(Cc2cnn(C)c2)C1 read MtTrpRS: -5.326%; Pks13 thioesterase: -10.38%; LiHisRS: 17.74%; TcHisRS: 3.247%. With Cc1ccc(-c2nnc(C(C)N3CCc4cncnc4C3)o2)cc1 (stereo not given) the screen gave MtTrpRS: -1.754%; Pks13 thioesterase: -9.966%; LiHisRS: 11.46%; TcHisRS: 14.92%. CC(C1CCN(Cc2ccc(N(C)C)nc2)CC1)N(C)C (stereo not given) read MtTrpRS: -0.3127%; Pks13 thioesterase: -3.096%; LiHisRS: 11.57%; TcHisRS: 6.122%. CCc1nc(CNc2ccc(C(=O)NCc3ccco3)cc2C)no1 gave MtTrpRS: 7.123%; Pks13 thioesterase: -27.76%; LiHisRS: 11.11%; TcHisRS: 4.04%.

For CC(C(=O)NCCCN1CCN(c2ccccc2)CC1)n1cncn1 (stereo not given) the result was MtTrpRS: -1.237%; Pks13 thioesterase: -7.899%; LiHisRS: 13.16%; TcHisRS: 2.312%. CCc1noc(C)c1C(=O)N1CCC(c2[nH]ncc2S(C)(=O)=O)C1 (stereo not given) gave LiHisRS: 13.04%; TcHisRS: 5.495%. Cc1nn(C)c(C)c1NC(=O)Nc1cccnc1N1CCCC1 read MtTrpRS: -3.229%; Pks13 thioesterase: -3.649%; LiHisRS: 20.72%; TcHisRS: 6.667%. Result for CCCn1ccnc1SCCNS(=O)(=O)c1ccccc1 was MtTrpRS: 0.7098%; Pks13 thioesterase: -16.01%; LiHisRS: 15.25%; TcHisRS: -1.463%. With Cn1cc(C[C@H]2[C@H](O)CCN2C(=O)C2CCCC2)cn1 the screen gave MtTrpRS: -1.514%; Pks13 thioesterase: -5.962%; LiHisRS: 13.27%; TcHisRS: 5.376%.

COc1c(C)cnc(CN2CCOC(CNc3cccnn3)C2)c1C (stereo not given) gave MtTrpRS: 18.95%; Pks13 thioesterase: -6.217%; LiHisRS: 16.07%; TcHisRS: 7.493%. CCC(=O)N1CCC(c2nc(C)c3c(n2)N(C)CCC3)CC1 gave MtTrpRS: 0.2038%; Pks13 thioesterase: -15.17%; LiHisRS: 7.042%; TcHisRS: 3.077%. For Cc1nccn1-c1ccc(CN2CC3C[C@@H](O)CN3C[C@@H]2C)cc1 (stereo not given in full) the result was MtTrpRS: -9.035%; Pks13 thioesterase: -10.95%; LiHisRS: 9.859%; TcHisRS: 7.692%. Result for COCCO[C@@H]1CCN(c2cc(OC)ncn2)[C@H]1Cc1cnn(C)c1 was MtTrpRS: -6.858%; Pks13 thioesterase: -33.43%; LiHisRS: 7.018%; TcHisRS: 2.186%. O=C(NCCN1CCOCC1)c1cc(-c2ccc3c(c2)CCO3)n[nH]1 gave MtTrpRS: 3.819%; LiHisRS: 5.825%; TcHisRS: -3.825%.

With CCC(Nc1ccc(Oc2ccccc2OC)cc1)C(N)=O (stereo not given) the screen gave MtTrpRS: -2.3%; Pks13 thioesterase: -11.18%; LiHisRS: 17.54%; TcHisRS: 7.563%. With COc1ccc2c(CN3CCN(Cc4cccc(F)c4)CC3)n[nH]c2c1 the screen gave MtTrpRS: 1.06%; Pks13 thioesterase: -22.77%; LiHisRS: 13.19%; TcHisRS: 7.831%. CN(Cc1cnn(C)c1)C(=O)NC1CCC(O)CC1 (stereo not given) read MtTrpRS: 3.791%; Pks13 thioesterase: -4.216%; LiHisRS: 8.654%; TcHisRS: 1.626%. COc1cc(CNc2nc(C3CC3)no2)cc(OC)c1OC read MtTrpRS: 9.423%; Pks13 thioesterase: -19.31%; LiHisRS: 10%; TcHisRS: 2.273%. CN1CC[C@]2(CN(CC3CCOCC3)C[C@H]2c2ccccc2)C1=O gave Pks13 thioesterase: 0.5575%; LiHisRS: -1.923%; TcHisRS: 0.5587%.

Result for CC1CN(c2ncccc2C(=O)Nc2cccc3c2CCCC3)CCN1 (stereo not given) was Pks13 thioesterase: 15.57%; LiHisRS: 17.82%; TcHisRS: 9.091%. Cc1ccc(CN2CCC3(CC(=O)N(c4ccc5c(c4)OCO5)C3)C2)o1 (stereo not given) gave MtTrpRS: -1.918%; LiHisRS: 18.18%; TcHisRS: 9.091%. With NC(CNS(=O)(=O)Cc1cccc2cccnc12)c1ccccc1 (stereo not given) the screen gave MtTrpRS: 0.2154%; Pks13 thioesterase: -16.65%; LiHisRS: 8.929%; TcHisRS: 2.632%.

Once more, the final 2:

compound	MtTrpRS	Pks13 thioesterase	LiHisRS	TcHisRS
Cc1ccc(CN2CCC3(CC(=O)N(c4ccc5c(c4)OCO5)C3)C2)o1 (stereo not given)	-1.918	-	18.18	9.091
NC(CNS(=O)(=O)Cc1cccc2cccnc12)c1ccccc1 (stereo not given)	0.2154	-16.65	8.929	2.632